US20170073410A1
These are yes or no findings as the source states them, for the method shown. In cells and extracts the contact can be indirect. Some results given as binding are weak or reduced against the parent protein; the word gives no strength.

Biological target: T1, IL12a (p35 subunit of Interleukin 12), mouse (mouse) (UniProt P43431)
T1 sequence (looked up): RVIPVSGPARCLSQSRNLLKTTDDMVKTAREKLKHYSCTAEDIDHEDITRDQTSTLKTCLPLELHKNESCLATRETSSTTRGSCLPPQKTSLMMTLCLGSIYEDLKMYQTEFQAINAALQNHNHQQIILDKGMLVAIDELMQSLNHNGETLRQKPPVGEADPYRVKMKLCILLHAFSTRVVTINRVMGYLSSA
Experiment: co-immunoprecipitation: IP with anti-IL12a (p35) mAb, SDS-PAGE, blot with anti-EBI3 mAb

B1: Epstein-Barr virus-induced gene 3 (EBI3) product, mouse (ligand, UniProt O35228 19-228, looked up)
chain: YTETALVALSQPRVQCHASRYPVAVDCSWTPLQAPNSTRSTSFIATYRLGVATQQQSQPCLQRSPQASRCTIPDVHLFSTVPYMLNVTAVHPGGASSSLLAFVAERIIKPDPPEGVRLRTAGQRLQVLWHPPASWPFPDIFSLKYRLRYRRRGASHFRQVGPIEATTFTLRNSKPHAKYCIQVSAQDLTDYGKPSDWSLPGQVESAPHKP
binding: binds
